Among all 580,000 compounds or so, about 6,100 (1.1%) were called active. This list was built around the results that the source calls inconclusive (neither active nor inactive); the mix of calls is not that of the screen. Calls come from the whole dose curve; as a rule, active = well fitted inhibition curve with a large enough effect; inconclusive = small, poorly fitted or top-dose-only effect, or another doubt; inactive = no such curve, though single readings can be large or run the other way. A potency beside an inconclusive call is a rough fit, not a confirmed value.
Target: Polyunsaturated fatty acid lipoxygenase ALOX12 (Homo sapiens) (UniProt P18054)
Test: Primary qHTS assay for inhibitors of human arachidonate 12S-lipoxygenase (ALOX12): Round 2
Conditions: purified 12hLO, xylenol orange hydroperoxide absorbance; activity change, negative = inhibition: at 108 µM (top of the series) unless noted
Method in brief: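 Purified human 12hLO (150 nM final) in 25 mM Hepes, 0.01% Triton X-100, pH 7.0 was preincubated 15 min at room temperature with compound. Then 40 uM arachidonic acid was added, 30 min. Hydroperoxide was read by Fe-XO absorbance ratio 573/405 nm.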
% is set by controls: 0 for no effect and ±100 for the full control effect; potency is the fitted concentration of half-maximal effect.

By UniProt entry, the sequences of proteins in these tests, tags left out. Where a name states a change or a piece, a line headed by the entry shows the natural chain unless it says otherwise.
UniProt P18054: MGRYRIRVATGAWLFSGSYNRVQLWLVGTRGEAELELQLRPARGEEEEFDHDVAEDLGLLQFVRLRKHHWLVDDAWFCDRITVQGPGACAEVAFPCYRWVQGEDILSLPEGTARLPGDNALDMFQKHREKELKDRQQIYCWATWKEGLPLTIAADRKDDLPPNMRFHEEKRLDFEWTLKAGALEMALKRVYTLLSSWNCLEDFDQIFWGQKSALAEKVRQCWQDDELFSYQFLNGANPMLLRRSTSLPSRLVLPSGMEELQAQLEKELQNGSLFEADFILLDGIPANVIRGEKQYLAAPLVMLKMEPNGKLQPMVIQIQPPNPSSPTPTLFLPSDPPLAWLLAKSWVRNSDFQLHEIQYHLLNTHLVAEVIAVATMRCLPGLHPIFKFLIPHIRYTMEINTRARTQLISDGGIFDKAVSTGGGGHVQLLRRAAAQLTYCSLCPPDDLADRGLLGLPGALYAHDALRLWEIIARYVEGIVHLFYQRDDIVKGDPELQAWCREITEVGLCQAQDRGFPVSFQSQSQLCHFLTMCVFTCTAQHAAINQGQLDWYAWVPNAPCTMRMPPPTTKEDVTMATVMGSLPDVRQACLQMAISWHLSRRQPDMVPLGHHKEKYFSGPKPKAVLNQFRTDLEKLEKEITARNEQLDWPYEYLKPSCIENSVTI

| Compound | Potency | activity change, negative = inhibition |
| --- | --- | --- |
| CCCCn1c(-c2c(Cl)c(C)nn2C)n[nH]c1=S | inconclusive: 50.1 µM [inhibitor, partial curve, poor fit] | – |
| COc1ccc2c(c1)c(=O)oc1cc(OCC(=O)N3CCCC(C)C3)ccc12 (centres undefined) | – | inactive: -17.2% |
| COC(=O)c1cc(-c2cc(C(F)(F)F)ccc2Cl)oc1C | – | inactive: -20.6% |
| C=CCC(C)(NCc1ccccc1)c1ccc(C)cc1 (centres undefined) | inconclusive: 3.55 µM [inhibitor, full curve] | – |
| Cc1ccc(-c2cc(C(=O)NCCCN3CCCC3)c3ccccc3n2)cc1C | inconclusive: 44.7 µM [inhibitor, partial curve, poor fit] | – |
| CCC(C(=O)Nc1nnc(CC2CCCC2)s1)c1ccccc1 (centres undefined) | – | inactive: 78.8% |
| CC(C)c1ccc(NC(=O)CCCN2C(=S)NC(C)(C)CC2C)cc1 (centres undefined) | inconclusive: 39.8 µM [inhibitor, partial curve, poor fit] | – |
| Cc1ccc(NC(=S)Nc2ccc(Cl)c(Cl)c2)c(OC(F)F)c1 | inconclusive: 44.7 µM [inhibitor, partial curve, poor fit] | – |
| CC1CCN(c2oc(-c3cccs3)nc2C#N)CC1 | inconclusive: 28.2 µM [inhibitor, single point] | – |
| CN(C)C(=O)COc1ccc2ccc(=O)oc2c1 | – | inactive: -5.34% |
| Cc1ccc(N2CC(C(=O)Nc3nnc(SCCN4CCOCC4)s3)CC2=O)cc1C (centres undefined) | inconclusive: 39.8 µM [inhibitor, partial curve, poor fit] | – |
| CC(C)c1cccc(-c2csc(C(O)c3cccc(Cl)c3)n2)c1 (centres undefined) | inconclusive: 31.6 µM [inhibitor, partial curve, poor fit] | – |
| COc1ccc2ccccc2c1CN1CCN(C(=O)c2ccco2)CC1 | inconclusive: 79.4 µM [inhibitor, partial curve, poor fit] | – |
| O=C(CC1CCCCC1)NCc1cccnc1 | – | inactive: 32.8% |
| CC(C)N1CC2CCC(C1)N2Cc1ccc(Cl)cc1 | inconclusive: 10 µM [inhibitor, full curve] | – |
| Cc1ccccc1N1CCN(c2ncnc3scc(-c4cccs4)c23)CC1 | – | inactive: 0% |
| O=C(CSc1nc2ncccc2c(=O)n1-c1ccccc1)NC1CCCCCC1 | inconclusive: 31.6 µM [inhibitor, single point] | – |
| O=C(COC(=O)C1=COCCO1)Nc1cc(Cl)c(Cl)cc1Cl | inconclusive: 89.1 µM [inhibitor, single point] | – |
| C=CCNc1nc(N)c(C(=C(C#N)C#N)c2ccccc2)s1 | inconclusive: 22.4 µM [inhibitor, partial curve, poor fit] | – |
| COC(=O)C1CCN(c2nc(CN(C)C3CCOC3)nc3cc(OC)c(OC)cc23)CC1 (centres undefined) | inconclusive: 35.5 µM [inhibitor, single point] | – |
| Cc1cccc(C)c1NC(=O)c1cc2cc(Br)ccc2oc1=O | inconclusive: 79.4 µM [inhibitor, partial curve, poor fit] | – |
| C/C(Cl)=C\Cn1c(O)c(N=NC(N)=S)c2ccccc21 | inconclusive: 3.16 µM [inhibitor, full curve, poor fit] | – |
| CCCc1nc2c(C)cc(Br)cn2c1Cc1ccsc1 | inconclusive: 50.1 µM [inhibitor, partial curve] | – |

| Compound | Potency | activity change, negative = inhibition |
| --- | --- | --- |
| COc1cc(Nc2nc(SCc3ccc(Cl)cc3)nc3ccccc23)cc(OC)c1 | – | inactive: 0% |
| O=S1(=O)C=CC(N(Cc2ccccc2)Cc2ccccc2F)C1 (centres undefined) | inconclusive: 126 µM [inhibitor, single point] | – |
| O=C(NC1CCCCCCC1)c1n[nH]c(=O)c2ccccc12 | inconclusive: 4.47 µM [inhibitor, single point] | – |
| CCc1nnc(NS(=O)(=O)c2ccc(NC(=S)NC(=O)c3ccncc3)cc2)s1 | inconclusive: 126 µM [inhibitor, partial curve, poor fit] | – |
| CCc1nc2c(cnn2-c2ccc(C)cc2)c(=O)n1Cc1ccccc1 | – | inactive: -18.4% |
| Cc1cccc(NC(=O)CN2C(=O)N/C(=C/c3ccc(-c4cccc(C(=O)O)c4C)o3)C2=O)c1 | inconclusive: 28.2 µM [inhibitor, partial curve, poor fit] | – |
| COc1ccc(C(=O)NNC(=O)OC(C)(C)C)cc1 | – | inactive: 15% |
| CC=CC(=O)N(CC)c1ccccc1C | inconclusive: 17.2 µM [inhibitor, partial curve, poor fit] | – |
| Cc1ccc(-c2onc(C)c2C)cc1S(=O)(=O)NCc1ccc(N(C)C)cc1 | inconclusive: 112 µM [inhibitor, partial curve, poor fit] | – |
| Cc1ccc(-n2c(C)cc(/C=N/NC(=O)Cn3c4ccccc4c(=O)c4ccccc43)c2C)cc1 | inconclusive: 50.1 µM [inhibitor, partial curve, poor fit] | – |
| CC1=C[C@@H](CNCc2ccc(Cl)cc2)[C@H](C(C)C)C[C@H]1Cc1nnc(-c2cncn2C)o1 | – | inactive: 4.82% |
| Cc1ccc(/C=C/C(=O)c2ccc(-c3ccccc3)cc2)o1 | inconclusive: 1.12 µM [inhibitor, full curve, poor fit] | – |
| CCc1nnc(NC(=O)Cn2ccc3ccc(Cl)cc32)s1 | inconclusive: 56.2 µM [inhibitor, single point] | – |
| COC(=O)c1cccc2c1NC(=O)C2=O | – | inactive: 4.19% |
| Cc1ccc(Cl)cc1NC(=O)CCc1ncc(-c2ccc(F)cc2)o1 | – | inactive: 0.127% |
| CSC1=NC(C)(C)C=C(/C=C/c2ccc(Cl)cc2)N1 | inconclusive: 44.7 µM [inhibitor, partial curve, poor fit] | – |
| CCCOc1ccc(-c2nc(C#N)c(NCCc3ccc(OC)c(OC)c3)o2)cc1 | inconclusive: 70.8 µM [inhibitor, partial curve, poor fit] | – |
| O=C(Nc1nccs1)c1cc2sccc2n1Cc1ccc(Cl)cc1 | – | inactive: -5.1% |
| COc1ccc(CNC(=O)N(C)CCOc2ccccc2C)cc1OC | – | inactive: -6.78% |
| COc1ccccc1C(=O)NCCNC(=O)c1ccco1 | – | inactive: -2.3% |
| CCN1CCCC1CNC(=O)c1nn(Cc2ccccc2)c(=O)c2ccccc12 (centres undefined) | inconclusive: 2.51 µM [inhibitor, full curve, poor fit] | – |
| CC(C)(C)C(c1nc2ccccc2[nH]1)n1c(-c2cccc(S(C)(=O)=O)c2)nc2ccccc21 (centres undefined) | – | inactive: -8.23% |
| CC(C)CCNC(=O)CCc1nnc(Cc2c[nH]c3ccccc23)o1 | inconclusive: 63.1 µM [inhibitor, partial curve, poor fit] | – |

Exported field by field: part of the list above
Cc1cccc(NC(=O)CN2C(=O)N/C(=C/c3ccc(-c4cccc(C(=O)O)c4C)o3)C2=O)c1
  Potency: inconclusive: 28.2 µM [inhibitor, partial curve, poor fit]
CCc1nnc(NC(=O)Cn2ccc3ccc(Cl)cc32)s1
  Potency: inconclusive: 56.2 µM [inhibitor, single point]
CSC1=NC(C)(C)C=C(/C=C/c2ccc(Cl)cc2)N1
  Potency: inconclusive: 44.7 µM [inhibitor, partial curve, poor fit]
COc1ccc(CNC(=O)N(C)CCOc2ccccc2C)cc1OC
  activity change, negative = inhibition: inactive: -6.78%

Remaining list, next part:

| Compound | Potency | activity change, negative = inhibition |
| --- | --- | --- |
| Cc1ccc(NC(=O)C2CCCN(S(=O)(=O)c3ccc4[nH]c(=O)oc4c3)C2)cc1N(C)C (centres undefined) | inconclusive: 39.8 µM [inhibitor, partial curve, poor fit] | – |
| Cc1ccc(C(CNC(=O)CCc2nc(-c3cccnc3)no2)N(C)C)cc1 (centres undefined) | – | inactive: -10.6% |
| CNC(=O)CCn1ncc2cc(OCc3ccccc3-c3cc(F)ccc3C)ccc21 | inconclusive: 89.1 µM [inhibitor, partial curve, poor fit] | – |
| CCC1CCCCN1Cc1ccc(OC)c(C)c1C (centres undefined) | inconclusive: 0.631 µM [inhibitor, full curve, poor fit] | – |
| O=C(C1CC1)N1CC[C@@H](Cn2c(-c3ccc(-c4ccc5occc5c4)cc3)nc3cnccc32)C1 | inconclusive: 54.4 µM [inhibitor, single point] | – |
| Cc1ccc(NC(=S)NCCc2ccc(S(N)(=O)=O)cc2)c(C)c1 | inconclusive: 79.4 µM [inhibitor, partial curve, poor fit] | – |
| Cc1noc(C2CCCCCN2C(=O)NCC(C)C)n1 (centres undefined) | – | inactive: 30.3% |
| Cc1ccc(Cn2c(=O)n(C)c(=O)c3sccc32)cc1 | – | inactive: 5% |
| CC(=Nc1ccccc1)C1=C(O)CSC1=O | – | inactive: 3.39% |
| O=C(C1=COCCO1)N1CCN(c2ccccc2)CC1 | inconclusive: 0.224 µM [inhibitor, full curve, poor fit] | – |
| CCOc1ccccc1CNc1nc2nc3c(c(=O)n2[nH]1)CCC3 | inconclusive: 31.6 µM [inhibitor, partial curve, poor fit] | – |
| CCOc1ccc(/C=N/N2C(C)CCCC2C)cc1 (centres undefined) | inconclusive: 6.31 µM [inhibitor, full curve] | – |
| O=C(C[C@H]1C[C@H](C(=O)N2CCCCC2)[C@@]2(CCc3ccccc3)c3[nH]c4ccc(Cl)cc4c3CCN2C1=O)NCc1cccc(C(F)(F)F)c1 | inconclusive: 89.1 µM [inhibitor, single point] | – |
| CC(=O)C1=C(O)C(=O)N(c2ccc(Br)cn2)C1c1ccccc1F (centres undefined) | inconclusive: 3.98 µM [inhibitor, full curve, poor fit] | – |
| CCC(=O)N1CCN(c2ccc(Cl)cc2NC(=O)c2cccc([N+](=O)[O-])c2)CC1 | – | inactive: 1.59% |
| Cc1sc(NC(=O)CCS(=O)(=O)c2ccccc2)c(C#N)c1C | inconclusive: 44.7 µM [inhibitor, partial curve, poor fit] | – |
| Clc1cc(Cl)c(N/N=C/c2cccc(Cl)c2Cl)c(Cl)c1 | inconclusive: 25.1 µM [inhibitor, partial curve] | – |
| CCCOc1ccc(/C=C/C(=O)Nc2cccc3cccnc23)cc1OC | – | inactive: -0.0658% |
| Cc1ccc(OCCSc2nnc(COc3ccc(Cl)cc3)n2C)cc1 | inconclusive: 44.7 µM [inhibitor, partial curve, poor fit] | – |
| COc1ccc(-c2[nH]nc3ncc(-c4ccccc4F)nc23)c(C)c1 | inconclusive: 6.31 µM [inhibitor, full curve] | – |
| O=C1NC(=Nc2ccccc2)S/C1=C\c1cccs1 | – | inactive: 49.5% |
| COc1ccc(-n2c(=S)[nH]c3c(sc(=S)n3-c3ccccc3)c2=O)c(OC)c1 | – | inactive: 55.1% |
| O=C(Nc1nn(-c2cccc(F)c2)c2cccc(N3CCOCC3)c12)C1CCC1 | – | inactive: 35.5% |

— PubChem BioAssay AID1671190 (National Center for Advancing Translational Sciences (NCATS), 2021)
